According to US5466682A, “Acylamino-alkyliden-hydroxy-bisphosphonic acids esters and salts thereof, wherein the acyl group is derived from an acid having antiinflammatory activity” (Istituto Gentili S.p.A., priority 1991, dated 1995):

Test system: bone calcium loss induced by retinoid
Test: Bone calcium loss induced by retinoid in thyroparathyroidectomized rat (plasma Ca)
Format: in vivo, rat (male)
Settings: thyroparathyroidectomized rats, retinoid s.c. 3 days, 24 hours after last administration
Experimental: Male rats weighing about […] are thyroparathyroidectomyzed under Nembutal anaesthesia. The animals are treated with thyroxine on alternate days during all the test. 7 Days after surgery, blood is withdrawn by means of intracardiac puncture and Ca is determined on plasma. The animals with a Ca plasma content higher than 2 mM are excluded from the test, the others are treated with the compounds under test and with retinoid which is administered subcutaneously for 3 consecutive days. 24 Hours after the last administration, animals are killed and blood is recovered to determine Ca again.
EFFECT OF BR--AB AND BR--AX D[…]
BONE CALCIUM LOSS INDUCED BY RETINOID IN RAT

Q: How did the “Plasmatic Ca increase after retinoid adm.” value (controls 1.11 ± 0.03) turn out when `NCCCC(O)(P(=O)(O)O)P(=O)(O)O` [AHBuBP, 4amino-1-hydroxybutylidene-1,1-diphosphonic acid, reference compound] was run?
A: The value was 0.29 ± 0.2 mmol/lt.

Q: And the “% inhibition (of plasmatic Ca increase after retinoid)” value (versus controls)?
A: Its value is 73.9%.
